US20210261618A1 (TAIAN CITY QIHANG BIOTECHNOLOGY CO., priority 2018, published 2021)
Some peptides are written in HELM: one residue between dots, names in brackets for other building blocks, links after the first $.

Experiment: general procedure: Fmoc solid-phase peptide synthesis
Conditions: whole synthesis

PEPTIDE1{R.V.L.N.G.P.E.E.E.A.A.A.P.A.E}$$$$V2.0
final HPLC purity: >98.5% | final purity (method not given) (HPLC): greater than 99%
